Results are given in words; binding and its absence hold for the method and conditions named. In cells and extracts the contact can be indirect. Tags and fused reporters may be left off the sequences shown.

This experiment addresses Ku70. In words: co-IP; Myc-tagged TBK1 constructs coexpressed with V5-tagged adaptors in HEK293 cells; Frackelton buffer (10 mM Tris/HCl pH 7.5, 50 mM NaCl, 1% Triton X-100); anti-Myc agarose or anti-V5 agarose, 2 h at 4°C; immunoblotting with anti-Myc and anti-V5. On the technique in general: A western blot detects proteins with antibodies after separation by electrophoresis.

B1: V5-tagged TANK (protein, UniProt P70347 1-448)
chain: MSLKRHSLRRNACHLETRAGIPTILYSDATGQRGMDKNIGEQLNRAYEAFRQACMDRDSAVRELQQKQTENYEQRIREQQEQLSFQQNLIDRLKSQLLLVDSSRDNSYGYVPLLEDSDRRKNNLTLDEPHDKVKLGTLRDKQSKVRRQEVSSGKESAKGLNIPLHHERDNIEKTFWDLKEEFHRICLLAKAQKDHLSKLNIPDIATDTQCSVPIQCTDKTEKQEALFKPQAKDDINRGMSCVTAVTPRGLGRDEEDTSFESLSKFNVKFPPMDNDSIFLHSTPEAPSILAPATPETVCQDRFNMEVRDNPGNFVKTEETLFEIQGIDPITSAIQNLKTTDKTNPSNLRATCLPAGDHNVFYVNTFPLQDPPDAPFPSLDSPGKAVRGPQQPFWKPFLNQDTDLVVPSDSDSELLKPLVCEFCQELFPPSITSRGDFLRHLNTHFNGET
For the molecule B1, the binding entry is given as “no binding”.

The record behind these values is article PMC3169550.
